Results are given in words; binding and its absence hold for the method and conditions named. In cells and extracts the contact can be indirect. Some binding calls cover weakened binding; strength is not graded here. For some of these results: Tags and fused reporters may be left off the sequences shown.
Experiments:
[1] = target: eGFP-CCDC32(∆78–98) (human) (UniProt Q9BV29); test: co-IP; IP of eGFP with anti-GFP magnetic beads from lysates of ARPE-HPV cells stably expressing eGFP, eGFP-CCDC32(FL), eGFP-CCDC32(∆78–98) or eGFP-CCDC32(1-54); 0.5 mg lysate protein, 50 mM Tris pH 7.5, 150 mM NaCl, 0.5% Triton X-100, 4 °C, 2 hr; Western blotting
eGFP-CCDC32(FL) (human) = eGFP-CCDC32(FL) (human) (UniProt Q9BV29); test: as above
GST-AP2-α-AD (mouse) = GST-AP2-α-AD (mouse) (UniProt P17427); test: pull-down; purified GST fusion proteins pre-bound to anti-GST beads, added to 0.5 mg lysate of ARPE-HPV eGFP-CCDC32(FL) cells, 4 °C, 2 hr; immunoblot of GFP; only the target purified
GST-AP2-β-AD (rat) = GST-AP2-β-AD (rat) (UniProt P62944); test: as above
[2] = target: T1, eGFP-CCDC32(FL) (human), Q9BV29; test: co-IP; IP of eGFP with anti-GFP magnetic beads from lysates of ARPE-HPV cells stably expressing eGFP, eGFP-CCDC32(FL), eGFP-CCDC32(∆78–98) or eGFP-CCDC32(1-54); 0.5 mg lysate protein, 50 mM Tris pH 7.5, 150 mM NaCl, 0.5% Triton X-100, 4 °C, 2 hr; Western blotting; details: remark: other sources report otherwise
T1 chain: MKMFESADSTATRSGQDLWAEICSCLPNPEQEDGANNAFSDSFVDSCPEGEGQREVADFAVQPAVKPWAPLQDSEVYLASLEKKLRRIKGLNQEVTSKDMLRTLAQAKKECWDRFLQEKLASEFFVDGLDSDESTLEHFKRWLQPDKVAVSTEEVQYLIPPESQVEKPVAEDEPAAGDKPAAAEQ

By UniProt entry, the sequences of proteins in these tests, tags left out. Residues count along the entry.
UniProt P17427, residues 701-938: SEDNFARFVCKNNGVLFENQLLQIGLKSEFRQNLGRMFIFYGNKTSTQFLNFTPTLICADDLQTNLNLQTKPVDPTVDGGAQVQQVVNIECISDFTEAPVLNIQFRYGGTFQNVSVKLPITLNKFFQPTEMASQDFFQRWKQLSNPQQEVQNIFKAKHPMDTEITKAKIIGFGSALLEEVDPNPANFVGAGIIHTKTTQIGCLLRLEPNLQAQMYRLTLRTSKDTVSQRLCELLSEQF
UniProt P62944, residues 592-937: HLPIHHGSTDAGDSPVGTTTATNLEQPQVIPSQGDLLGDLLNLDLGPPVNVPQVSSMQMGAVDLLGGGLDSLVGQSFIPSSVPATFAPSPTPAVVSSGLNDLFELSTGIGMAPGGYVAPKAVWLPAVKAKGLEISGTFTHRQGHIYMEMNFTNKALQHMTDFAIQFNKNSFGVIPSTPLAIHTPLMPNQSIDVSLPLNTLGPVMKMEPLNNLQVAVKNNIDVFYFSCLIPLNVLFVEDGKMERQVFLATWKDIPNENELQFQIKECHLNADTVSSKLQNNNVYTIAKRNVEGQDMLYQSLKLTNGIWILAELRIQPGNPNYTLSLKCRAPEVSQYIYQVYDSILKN
UniProt P63010: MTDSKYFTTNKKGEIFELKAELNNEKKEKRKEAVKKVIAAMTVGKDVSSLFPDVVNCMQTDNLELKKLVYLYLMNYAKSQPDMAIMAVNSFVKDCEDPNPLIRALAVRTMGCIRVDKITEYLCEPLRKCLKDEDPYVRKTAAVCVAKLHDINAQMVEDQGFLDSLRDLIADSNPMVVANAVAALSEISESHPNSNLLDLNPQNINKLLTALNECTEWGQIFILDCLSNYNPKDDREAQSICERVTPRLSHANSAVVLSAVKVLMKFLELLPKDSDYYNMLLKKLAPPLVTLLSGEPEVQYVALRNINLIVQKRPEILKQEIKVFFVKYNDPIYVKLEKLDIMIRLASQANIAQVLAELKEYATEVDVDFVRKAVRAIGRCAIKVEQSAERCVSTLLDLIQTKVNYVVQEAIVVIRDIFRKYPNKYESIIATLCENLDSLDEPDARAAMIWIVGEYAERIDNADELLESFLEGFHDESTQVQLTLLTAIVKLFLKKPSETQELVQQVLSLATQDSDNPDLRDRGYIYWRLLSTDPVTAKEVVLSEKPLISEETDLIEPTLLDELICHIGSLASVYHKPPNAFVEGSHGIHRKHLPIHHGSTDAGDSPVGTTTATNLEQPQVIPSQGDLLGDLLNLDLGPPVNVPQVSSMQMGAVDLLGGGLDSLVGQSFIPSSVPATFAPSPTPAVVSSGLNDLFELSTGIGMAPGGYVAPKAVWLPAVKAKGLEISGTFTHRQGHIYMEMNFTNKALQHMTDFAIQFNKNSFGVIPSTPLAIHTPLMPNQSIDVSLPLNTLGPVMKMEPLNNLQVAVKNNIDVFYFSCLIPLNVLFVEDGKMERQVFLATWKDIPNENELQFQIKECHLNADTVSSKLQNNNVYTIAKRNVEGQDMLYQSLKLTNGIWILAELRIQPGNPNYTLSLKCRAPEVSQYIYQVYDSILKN
UniProt Q96CW1: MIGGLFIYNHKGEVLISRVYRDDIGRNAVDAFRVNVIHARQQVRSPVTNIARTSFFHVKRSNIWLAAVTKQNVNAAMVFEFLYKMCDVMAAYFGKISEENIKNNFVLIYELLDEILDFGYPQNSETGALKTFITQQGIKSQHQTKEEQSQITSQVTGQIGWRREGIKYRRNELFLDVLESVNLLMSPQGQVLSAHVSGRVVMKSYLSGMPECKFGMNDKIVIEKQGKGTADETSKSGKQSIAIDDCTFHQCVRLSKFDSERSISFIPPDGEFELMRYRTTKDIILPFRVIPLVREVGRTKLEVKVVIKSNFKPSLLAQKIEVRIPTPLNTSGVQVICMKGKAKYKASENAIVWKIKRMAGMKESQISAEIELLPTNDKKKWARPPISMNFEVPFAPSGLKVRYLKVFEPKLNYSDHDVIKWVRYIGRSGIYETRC

Molecule	binding [1]	binding (eGFP-CCDC32(FL) (human))	binding (GST-AP2-α-AD (mouse))	binding (GST-AP2-β-AD (rat))	binding [2]
AP2 β2 subunit (from UniProt P63010 1-937)	binds	binds	–	–	–
AP2 µ2 subunit (from UniProt Q96CW1 1-435)	binds	binds	–	–	–
eGFP-CCDC32(FL) (from UniProt Q9BV29 1-185)	–	–	binds	no binding	–
CCDC32 (endogenous), Q9BV29 1-185 (protein) MKMFESADSTATRSGQDLWAEICSCLPNPEQEDGANNAFSDSFVDSCPEGEGQREVADFAVQPAVKPWAPLQDSEVYLASLEKKLRRIKGLNQEVTSKDMLRTLAQAKKECWDRFLQEKLASEFFVDGLDSDESTLEHFKRWLQPDKVAVSTEEVQYLIPPESQVEKPVAEDEPAAGDKPAAAEQ	–	–	–	–	no binding
